Measured values as given in the supplement of paper PMC10849652.
The other results are listed elsewhere or left out.

Amino acid sequences for entries named in this document (tags omitted). A change or cut given only in a name is not applied to a line headed by its entry.
UniProt O43765: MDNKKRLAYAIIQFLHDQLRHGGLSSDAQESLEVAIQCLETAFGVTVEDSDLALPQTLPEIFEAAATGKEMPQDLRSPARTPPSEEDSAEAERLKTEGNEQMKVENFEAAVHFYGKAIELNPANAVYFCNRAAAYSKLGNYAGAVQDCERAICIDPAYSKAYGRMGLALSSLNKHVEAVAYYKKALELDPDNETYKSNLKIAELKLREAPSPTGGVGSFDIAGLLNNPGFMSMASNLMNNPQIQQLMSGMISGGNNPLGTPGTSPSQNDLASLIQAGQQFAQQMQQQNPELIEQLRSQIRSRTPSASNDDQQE
UniProt Q8IX90, whole entry, looked up: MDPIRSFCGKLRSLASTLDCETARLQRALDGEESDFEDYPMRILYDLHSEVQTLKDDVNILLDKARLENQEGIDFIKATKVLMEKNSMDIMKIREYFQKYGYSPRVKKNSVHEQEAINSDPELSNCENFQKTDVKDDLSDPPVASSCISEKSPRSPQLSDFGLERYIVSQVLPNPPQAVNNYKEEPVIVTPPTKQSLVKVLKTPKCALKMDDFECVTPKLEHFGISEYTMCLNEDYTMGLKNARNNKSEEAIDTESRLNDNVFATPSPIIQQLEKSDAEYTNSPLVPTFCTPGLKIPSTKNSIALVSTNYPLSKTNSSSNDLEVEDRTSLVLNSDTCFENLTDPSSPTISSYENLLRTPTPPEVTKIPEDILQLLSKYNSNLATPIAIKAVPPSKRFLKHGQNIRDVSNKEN
UniProt P61619, whole entry, looked up: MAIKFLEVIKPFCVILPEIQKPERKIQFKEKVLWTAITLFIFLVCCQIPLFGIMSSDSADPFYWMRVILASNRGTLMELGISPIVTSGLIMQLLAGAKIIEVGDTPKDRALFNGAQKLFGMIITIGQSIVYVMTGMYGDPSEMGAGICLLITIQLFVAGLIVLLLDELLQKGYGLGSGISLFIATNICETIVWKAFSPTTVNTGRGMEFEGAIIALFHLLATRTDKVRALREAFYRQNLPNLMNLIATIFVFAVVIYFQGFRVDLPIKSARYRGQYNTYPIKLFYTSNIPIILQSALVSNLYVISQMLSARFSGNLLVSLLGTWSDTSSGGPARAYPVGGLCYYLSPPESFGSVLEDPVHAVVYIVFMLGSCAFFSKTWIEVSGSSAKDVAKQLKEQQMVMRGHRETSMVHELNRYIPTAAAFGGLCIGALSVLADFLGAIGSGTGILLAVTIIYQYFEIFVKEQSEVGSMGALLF
UniProt O75533, whole entry, looked up: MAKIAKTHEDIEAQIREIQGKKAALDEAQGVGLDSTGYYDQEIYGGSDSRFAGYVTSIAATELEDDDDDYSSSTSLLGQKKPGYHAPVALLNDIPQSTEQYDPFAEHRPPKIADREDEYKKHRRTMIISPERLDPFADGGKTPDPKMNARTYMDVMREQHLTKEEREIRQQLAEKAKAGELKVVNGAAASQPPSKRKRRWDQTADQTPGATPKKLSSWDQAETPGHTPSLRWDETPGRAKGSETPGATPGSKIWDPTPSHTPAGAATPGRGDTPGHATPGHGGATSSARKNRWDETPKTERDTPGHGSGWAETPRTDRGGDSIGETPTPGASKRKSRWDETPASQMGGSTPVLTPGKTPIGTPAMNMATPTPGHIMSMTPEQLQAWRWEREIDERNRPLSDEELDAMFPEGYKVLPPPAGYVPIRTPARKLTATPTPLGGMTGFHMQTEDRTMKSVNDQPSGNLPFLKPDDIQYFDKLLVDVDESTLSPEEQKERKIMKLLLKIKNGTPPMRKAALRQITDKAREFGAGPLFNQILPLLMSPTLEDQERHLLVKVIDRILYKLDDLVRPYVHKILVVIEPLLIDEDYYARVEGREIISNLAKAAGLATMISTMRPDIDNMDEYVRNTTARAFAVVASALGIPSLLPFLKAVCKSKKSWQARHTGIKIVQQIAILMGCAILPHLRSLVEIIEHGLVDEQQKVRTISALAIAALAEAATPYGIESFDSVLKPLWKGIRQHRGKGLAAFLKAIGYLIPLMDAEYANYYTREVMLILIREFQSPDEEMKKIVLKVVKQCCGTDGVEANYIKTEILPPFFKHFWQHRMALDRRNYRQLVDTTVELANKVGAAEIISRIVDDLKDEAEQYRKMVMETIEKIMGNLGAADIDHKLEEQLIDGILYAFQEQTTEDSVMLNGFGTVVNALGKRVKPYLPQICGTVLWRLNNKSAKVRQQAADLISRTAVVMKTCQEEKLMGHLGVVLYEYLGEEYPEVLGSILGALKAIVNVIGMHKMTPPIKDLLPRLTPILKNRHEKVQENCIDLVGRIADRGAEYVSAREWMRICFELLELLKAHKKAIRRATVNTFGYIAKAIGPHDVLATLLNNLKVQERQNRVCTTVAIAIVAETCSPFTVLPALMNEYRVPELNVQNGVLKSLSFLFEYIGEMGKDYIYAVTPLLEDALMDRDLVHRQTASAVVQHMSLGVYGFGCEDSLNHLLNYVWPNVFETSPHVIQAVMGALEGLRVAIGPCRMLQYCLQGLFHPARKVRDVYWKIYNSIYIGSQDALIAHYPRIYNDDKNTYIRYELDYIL
UniProt Q9UGP8: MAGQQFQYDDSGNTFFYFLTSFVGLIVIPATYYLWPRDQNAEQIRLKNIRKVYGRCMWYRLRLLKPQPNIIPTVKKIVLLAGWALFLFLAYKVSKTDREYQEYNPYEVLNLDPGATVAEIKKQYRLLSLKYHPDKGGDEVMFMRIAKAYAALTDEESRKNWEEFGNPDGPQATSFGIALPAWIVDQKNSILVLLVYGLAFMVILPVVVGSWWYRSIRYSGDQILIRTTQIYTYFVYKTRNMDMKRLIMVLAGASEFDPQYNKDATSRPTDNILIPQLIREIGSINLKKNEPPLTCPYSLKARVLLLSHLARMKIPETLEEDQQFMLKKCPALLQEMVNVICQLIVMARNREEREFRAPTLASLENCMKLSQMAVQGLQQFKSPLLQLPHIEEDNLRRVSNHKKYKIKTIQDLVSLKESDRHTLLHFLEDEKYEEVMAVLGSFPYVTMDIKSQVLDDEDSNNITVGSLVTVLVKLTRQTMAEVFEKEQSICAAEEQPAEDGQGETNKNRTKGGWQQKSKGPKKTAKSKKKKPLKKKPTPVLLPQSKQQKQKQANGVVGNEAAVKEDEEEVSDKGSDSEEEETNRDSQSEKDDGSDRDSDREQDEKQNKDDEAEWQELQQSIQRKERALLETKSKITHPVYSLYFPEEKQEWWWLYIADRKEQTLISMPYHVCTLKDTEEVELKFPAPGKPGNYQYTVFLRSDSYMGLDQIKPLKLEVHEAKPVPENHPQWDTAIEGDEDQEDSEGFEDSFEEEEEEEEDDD
UniProt P34897: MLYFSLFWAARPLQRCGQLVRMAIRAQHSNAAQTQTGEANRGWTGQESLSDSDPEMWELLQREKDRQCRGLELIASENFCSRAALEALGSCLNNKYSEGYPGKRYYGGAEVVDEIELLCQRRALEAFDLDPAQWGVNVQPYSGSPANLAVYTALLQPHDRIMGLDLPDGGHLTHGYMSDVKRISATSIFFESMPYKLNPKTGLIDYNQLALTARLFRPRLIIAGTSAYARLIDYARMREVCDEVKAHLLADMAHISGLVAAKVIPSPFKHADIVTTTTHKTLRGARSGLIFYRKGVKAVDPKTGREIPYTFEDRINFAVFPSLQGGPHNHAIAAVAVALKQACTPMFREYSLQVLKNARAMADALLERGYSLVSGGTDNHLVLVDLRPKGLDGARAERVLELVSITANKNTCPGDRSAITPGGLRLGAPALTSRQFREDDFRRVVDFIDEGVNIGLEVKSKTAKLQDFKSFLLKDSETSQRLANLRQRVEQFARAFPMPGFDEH
UniProt P29353: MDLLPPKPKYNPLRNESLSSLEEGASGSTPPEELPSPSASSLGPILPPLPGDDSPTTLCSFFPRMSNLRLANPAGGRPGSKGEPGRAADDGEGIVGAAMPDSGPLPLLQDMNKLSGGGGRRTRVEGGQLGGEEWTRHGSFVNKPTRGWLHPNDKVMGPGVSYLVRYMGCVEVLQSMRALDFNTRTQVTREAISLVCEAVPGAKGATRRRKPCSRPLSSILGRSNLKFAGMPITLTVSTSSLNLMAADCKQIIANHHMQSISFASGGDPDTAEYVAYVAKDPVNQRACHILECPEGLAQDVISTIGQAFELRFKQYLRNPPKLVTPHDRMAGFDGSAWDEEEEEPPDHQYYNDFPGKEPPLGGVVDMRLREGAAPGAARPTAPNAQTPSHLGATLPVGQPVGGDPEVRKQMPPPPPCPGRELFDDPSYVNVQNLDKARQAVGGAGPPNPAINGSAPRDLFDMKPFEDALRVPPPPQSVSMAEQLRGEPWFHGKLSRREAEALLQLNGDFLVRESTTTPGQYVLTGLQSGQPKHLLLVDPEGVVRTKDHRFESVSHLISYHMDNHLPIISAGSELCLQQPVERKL
UniProt Q15637: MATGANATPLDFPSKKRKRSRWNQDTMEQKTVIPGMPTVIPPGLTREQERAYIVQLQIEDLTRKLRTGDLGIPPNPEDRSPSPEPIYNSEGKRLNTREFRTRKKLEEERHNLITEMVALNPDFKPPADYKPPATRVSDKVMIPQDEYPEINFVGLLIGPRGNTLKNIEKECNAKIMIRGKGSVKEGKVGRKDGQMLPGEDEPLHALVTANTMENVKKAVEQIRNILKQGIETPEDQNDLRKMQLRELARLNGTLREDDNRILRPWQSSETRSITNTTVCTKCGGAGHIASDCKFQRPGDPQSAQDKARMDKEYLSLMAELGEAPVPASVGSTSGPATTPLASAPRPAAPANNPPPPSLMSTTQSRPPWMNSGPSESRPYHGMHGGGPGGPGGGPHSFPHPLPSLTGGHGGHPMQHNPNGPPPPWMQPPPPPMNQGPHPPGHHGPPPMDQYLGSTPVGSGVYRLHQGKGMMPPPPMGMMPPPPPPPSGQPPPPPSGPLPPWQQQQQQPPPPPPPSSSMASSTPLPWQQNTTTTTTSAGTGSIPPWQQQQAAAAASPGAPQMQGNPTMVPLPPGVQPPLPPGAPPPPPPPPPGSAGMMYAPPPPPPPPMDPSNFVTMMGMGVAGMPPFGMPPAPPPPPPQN
UniProt Q9HD40: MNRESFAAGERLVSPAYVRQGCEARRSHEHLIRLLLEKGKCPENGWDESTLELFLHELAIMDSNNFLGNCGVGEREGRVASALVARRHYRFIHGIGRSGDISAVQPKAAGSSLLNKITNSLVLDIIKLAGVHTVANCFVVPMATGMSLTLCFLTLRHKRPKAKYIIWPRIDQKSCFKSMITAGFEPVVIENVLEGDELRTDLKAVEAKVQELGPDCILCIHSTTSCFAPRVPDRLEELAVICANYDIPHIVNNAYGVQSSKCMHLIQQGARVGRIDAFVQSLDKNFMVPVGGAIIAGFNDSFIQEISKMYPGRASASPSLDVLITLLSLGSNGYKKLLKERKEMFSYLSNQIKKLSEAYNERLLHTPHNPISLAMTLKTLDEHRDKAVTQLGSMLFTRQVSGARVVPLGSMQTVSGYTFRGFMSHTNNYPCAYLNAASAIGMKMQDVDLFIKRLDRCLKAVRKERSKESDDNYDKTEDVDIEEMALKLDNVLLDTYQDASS
UniProt Q9Y3B4: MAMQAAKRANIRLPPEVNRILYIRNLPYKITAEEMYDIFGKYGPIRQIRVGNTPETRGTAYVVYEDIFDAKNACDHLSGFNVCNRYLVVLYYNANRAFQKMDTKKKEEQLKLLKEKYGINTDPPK
UniProt Q8NC51: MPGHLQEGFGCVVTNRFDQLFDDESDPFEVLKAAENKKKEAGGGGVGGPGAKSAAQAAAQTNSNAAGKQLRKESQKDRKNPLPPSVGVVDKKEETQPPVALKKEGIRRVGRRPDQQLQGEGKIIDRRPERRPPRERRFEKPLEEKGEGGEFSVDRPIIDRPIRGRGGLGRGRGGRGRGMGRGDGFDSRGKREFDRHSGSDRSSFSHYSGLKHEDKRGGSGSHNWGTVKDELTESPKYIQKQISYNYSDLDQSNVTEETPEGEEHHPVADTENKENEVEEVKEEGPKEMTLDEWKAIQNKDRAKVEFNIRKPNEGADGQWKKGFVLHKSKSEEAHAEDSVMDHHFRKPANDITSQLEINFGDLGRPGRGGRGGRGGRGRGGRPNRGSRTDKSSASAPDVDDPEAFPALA
UniProt Q16181: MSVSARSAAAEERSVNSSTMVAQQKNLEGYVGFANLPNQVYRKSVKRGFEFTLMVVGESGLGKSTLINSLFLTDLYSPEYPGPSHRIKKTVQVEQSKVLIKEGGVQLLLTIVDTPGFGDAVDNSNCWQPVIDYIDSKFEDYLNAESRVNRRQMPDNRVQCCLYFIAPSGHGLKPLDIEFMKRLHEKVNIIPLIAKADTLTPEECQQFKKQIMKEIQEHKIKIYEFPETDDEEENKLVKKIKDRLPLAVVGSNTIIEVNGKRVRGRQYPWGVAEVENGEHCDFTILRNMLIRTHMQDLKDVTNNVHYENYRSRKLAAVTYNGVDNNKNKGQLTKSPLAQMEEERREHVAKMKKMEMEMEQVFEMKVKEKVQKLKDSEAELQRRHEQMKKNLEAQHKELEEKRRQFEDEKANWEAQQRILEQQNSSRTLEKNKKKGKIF

Tests used:
Assay in all cases: log2 fold change, soluble protein after heating vs DMSO (PISA); higher = thermal stabilisation; K562 cells, 10 uM, 30 min; active = over 0.2 and 3.5 SD of the protein, either way, in both replicates (recomputed)
[1] = compound: CS(=O)(=O)c1ccc(-c2cnc(N)c(C(=O)Nc3ccccc3)n2)cc1
How it was run: (§1)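 K562 cells at 2×10^6 cells/mL were treated with 10 μM compound for 30 min. Aliquots were heated for 3 min across 48°C-58°C, pooled, and extracted in PBS with 0.5% NP-40 at 4°C; soluble protein was the supernatant after 21,000xg for 90 min. Soluble protein was quantified by TMTpro 16plex LC-MS/MS with channel sums equalised, and reported as log2 fold change in thermal stability against DMSO controls, with values from duplicates.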

[2] = compound: C[C@@H](Oc1cc(-c2cnn(C3CCNCC3)c2)cnc1N)c1c(Cl)ccc(F)c1Cl [crizotinib]
How it was run: as §1

[3] = compound: C[C@@H]1COCCN1C2=NC(=NC(=C2)C3(CC3)S(=O)(=O)C)C4=C5C=CNC5=CC=C4
How it was run: as §1

[4] = compound: C[C@H](C1=CC=C(C=C1)C(=O)NC2=C3C=CNC3=NC=C2)N
How it was run: as §1

[5] = compound: C[C@H](Nc1ncnc2nc[nH]c12)c1cc2cccc(Cl)c2c(=O)n1-c1ccccc1 [duvelisib]
How it was run: as §1

[6] = compound: Cc1cc(Nc2cc(CN3CCOCC3)c3nc(C)c(Cc4ccc(Cl)cc4F)n3n2)n[nH]1 [gandotinib]
How it was run: as §1

[7] = compound: Cc1cc(Nc2cc(N3CCN(C)CC3)nc(Sc3ccc(NC(=O)C4CC4)cc3)n2)n[nH]1 [tozasertib]
How it was run: as §1

[8] = compound: Cc1cc(SCc2sc(-c3ccc(C(F)(F)F)cc3)nc2C)ccc1OCC(=O)O
How it was run: as §1

[9] = compound: Cc1ccc(-n2nc(C(C)(C)C)cc2NC(=O)Nc2ccc(OCCN3CCOCC3)c3ccccc23)cc1 [doramapimod]
How it was run: as §1

[10] = compound: Cc1ccc(C(=O)N(CCCN)[C@@H](c2nc3cc(Cl)ccc3c(=O)n2Cc2ccccc2)C(C)C)cc1 [ispinesib]
How it was run: as §1

[11] = compound: Cc1ccc(NC(=O)c2ccc(CN3CC[C@H](N(C)C)C3)c(C(F)(F)F)c2)cc1Nc1nccc(-c2cncnc2)n1 [bafetinib]
How it was run: as §1

[12] = compound: Cc1cccc(CC(=O)N2CCc3c2ccc(-c2cn(C)c4ncnc(N)c24)c3F)n1
How it was run: as §1

[13] = compound: Cc1cn(-c2cc(NC(=O)c3ccc(C)c(Nc4nccc(-c5cccnc5)n4)c3)cc(C(F)(F)F)c2)cn1 [nilotinib]
How it was run: as §1

[14] = compound: Cc1nc(Nc2n[nH]c3c2CN(C(=O)N[C@H](CN(C)C)c2ccccc2)C3(C)C)c2sccc2n1
How it was run: as §1

[15] = compound: Cc1nc(Nc2ncc(C(=O)Nc3c(C)cccc3Cl)s2)cc(N2CCN(CCO)CC2)n1 [dasatinib]
How it was run: as §1

[16] = compound: Cc1ncc(-c2ccnc(Nc3ccc(S(C)(=O)=O)cc3)n2)n1C(C)C
How it was run: as §1

[17] = compound: Cn1cc(-c2ccc3c(c2)CCN3C(=O)Cc2cccc(C(F)(F)F)c2)c2c(N)ncnc21
How it was run: as §1

[18] = compound: Cn1cc(-c2ccc3nnc(C(F)(F)c4ccc5ncccc5c4)n3n2)cn1
How it was run: as §1

[19] = compound: Cn1cncc1[C@@](N)(c1ccc(Cl)cc1)c1ccc2c(c1)c(-c1cccc(Cl)c1)cc(=O)n2C [tipifarnib]
How it was run: as §1

[20] = compound: FC(F)(F)c1ccc(/C=C/c2nc(COc3ccc(CCCCn4ccnn4)cc3)co2)cc1 [mubritinib]
How it was run: as §1

Measured: log2 fold change

SGTA (UniProt O43765)
inactive: [1] 0.012 | [2] 0.031 | [3] 0.041 | [4] -0.056 | [5] 0.01 | [6] -0.018 | [7] 0.037 | [8] -0.003 | [9] -0.034 | [10] 0.029 | [11] -0.046 | [12] 0.008 | [13] -0.037 | [14] -0.016 | [15] -0.1 | [16] 0.031 | [17] 0.013 | [18] -0.014 | [19] -0.048 | [20] 0.029

SKA3 (UniProt Q8IX90)
inactive: [1] -0.029 | [2] -0.074 | [3] -0.185 | [4] 0.195 | [5] 0.071 | [6] -0.047 | [7] 0.191 | [8] 0.036 | [9] 0.122 | [10] -0.358 | [11] -0.054 | [12] 0.052 | [13] -0.015 | [14] -0.11 | [15] -0.076 | [16] -0.038 | [17] -0.231 | [18] -0.115 | [19] 0.028 | [20] -0.051

SEC61A1 (UniProt P61619)
inactive: [1] 0.025 | [2] 0.073 | [3] 0 | [4] -0.078 | [5] 0.081 | [6] -0.011 | [7] 0.002 | [8] -0.007 | [9] -0.021 | [10] 0.016 | [11] 0.002 | [12] -0.012 | [13] -0.022 | [14] 0.054 | [15] -0.046 | [16] -0.054 | [17] 0.041 | [18] -0.034 | [19] -0.037 | [20] -0.013

SF3B1 (UniProt O75533)
inactive: [1] -0.008 | [2] -0.027 | [3] 0.034 | [4] 0.04 | [5] -0.026 | [6] -0.064 | [7] 0.05 | [8] 0.089 | [9] -0.016 | [10] -0.07 | [11] 0.048 | [12] 0.098 | [13] -0.041 | [14] -0.167 | [15] -0.069 | [16] -0.052 | [17] -0.041 | [18] 0.017 | [19] -0.026 | [20] 0.082

SEC63 (UniProt Q9UGP8)
inactive: [1] -0.001 | [2] 0.062 | [3] 0.015 | [4] -0.009 | [5] 0.02 | [6] -0.038 | [7] -0.007 | [8] -0.016 | [9] -0.012 | [10] 0.145 | [11] 0.02 | [12] 0.021 | [13] -0.059 | [14] -0.002 | [15] -0.002 | [16] -0.003 | [17] 0.03 | [18] -0.001 | [19] -0.04 | [20] 0.043

SERPINB6, A0A087X1N8
inactive: [1] 0.014 | [2] 0.029 | [3] -0.018 | [4] -0.103 | [5] -0.004 | [6] 0.046 | [7] -0.016 | [8] -0.009 | [9] -0.033 | [10] 0.09 | [11] -0.02 | [12] 0.001 | [13] 0.042 | [14] -0.015 | [15] 0.031 | [16] 0.004 | [17] 0.01 | [18] -0.028 | [19] 0.029 | [20] 0.019

2 records drawn at random from the list so far, as already listed:
SKA3 (UniProt Q8IX90)
inactive: [1] -0.029 | [2] -0.074 | [3] -0.185 | [4] 0.195 | [5] 0.071 | [6] -0.047 | [7] 0.191 | [8] 0.036 | [9] 0.122 | [10] -0.358 | [11] -0.054 | [12] 0.052 | [13] -0.015 | [14] -0.11 | [15] -0.076 | [16] -0.038 | [17] -0.231 | [18] -0.115 | [19] 0.028 | [20] -0.051

SERPINB6, A0A087X1N8
inactive: [1] 0.014 | [2] 0.029 | [3] -0.018 | [4] -0.103 | [5] -0.004 | [6] 0.046 | [7] -0.016 | [8] -0.009 | [9] -0.033 | [10] 0.09 | [11] -0.02 | [12] 0.001 | [13] 0.042 | [14] -0.015 | [15] 0.031 | [16] 0.004 | [17] 0.01 | [18] -0.028 | [19] 0.029 | [20] 0.019

Further results

SH3BP5 (UniProt O60239)
inactive: [1] 0.08 | [2] 0.082 | [3] -0.019 | [4] 0.065 | [5] 0.053 | [6] 0.111 | [7] -0.042 | [8] -0.045 | [9] -0.038 | [10] -0.034 | [11] -0.053 | [12] 0.013 | [13] 0.004 | [14] -0.113 | [15] -0.132 | [16] 0.017 | [17] -0.005 | [18] -0.008 | [19] -0.086 | [20] -0.001

SHMT2 (UniProt P34897)
inactive: [1] -0.012 | [2] 0.035 | [3] 0.074 | [4] -0.038 | [5] 0.005 | [6] 0 | [7] -0.018 | [8] -0.03 | [9] -0.01 | [10] 0.015 | [11] -0.026 | [12] -0.04 | [13] 0.003 | [14] 0.018 | [15] 0.035 | [16] -0.024 | [17] 0.013 | [18] 0.026 | [19] -0.009 | [20] 0.023

SHC1 isoform 6 (UniProt P29353)
inactive: [1] -0.013 | [2] 0.011 | [3] 0.045 | [4] -0.04 | [5] 0.004 | [6] -0.014 | [7] 0.011 | [8] 0.019 | [9] -0.041 | [10] -0.022 | [11] -0.011 | [12] -0.035 | [13] 0.084 | [14] -0.014 | [15] 0.033 | [16] 0.002 | [17] -0.004 | [18] -0.035 | [19] -0.006 | [20] 0.037

SF1 isoform 6 (UniProt Q15637)
inactive: [1] 0.137 | [2] 0.027 | [3] -0.235 | [4] -0.142 | [5] -0.001 | [6] 0.045 | [7] -0.06 | [8] 0.037 | [9] 0.042 | [10] 0.022 | [11] -0.172 | [12] -0.115 | [13] -0.187 | [14] 0.052 | [15] 0.023 | [16] -0.026 | [17] 0.104 | [18] -0.096 | [19] -0.178 | [20] -0.048

SEPSECS (UniProt Q9HD40)
inactive: [1] 0.023 | [2] 0.082 | [3] -0.043 | [4] -0.173 | [5] -0.03 | [6] -0.065 | [7] -0.02 | [8] -0.079 | [9] -0.009 | [10] 0.012 | [11] 0.015 | [12] -0.036 | [13] -0.052 | [14] 0.01 | [15] 0.04 | [16] -0.031 | [17] 0.016 | [18] -0.011 | [19] -0.03 | [20] 0.013

SF3B6 (UniProt Q9Y3B4)
inactive: [1] -0.036 | [2] -0.05 | [3] -0.032 | [4] 0.183 | [5] -0.071 | [6] -0.062 | [7] -0.019 | [8] 0.041 | [9] 0 | [10] 0.019 | [11] 0.083 | [12] -0.027 | [13] 0.116 | [14] -0.049 | [15] 0.015 | [16] 0.038 | [17] 0.01 | [18] 0.007 | [19] -0.057 | [20] -0.058

SERBP1 (UniProt Q8NC51)
inactive: [1] -0.052 | [2] 0.018 | [3] -0.198 | [4] 0.169 | [5] -0.038 | [6] -0.038 | [7] -0.051 | [8] -0.012 | [9] 0.059 | [10] -0.155 | [11] 0.039 | [12] -0.157 | [13] 0.021 | [14] 0.016 | [15] 0.112 | [16] 0.002 | [17] -0.047 | [18] -0.039 | [19] 0.083 | [20] -0.046

SELENOS (UniProt Q9BQE4)
inactive: [1] -0.033 | [2] 0.006 | [3] -0.178 | [4] -0.063 | [5] 0.037 | [6] -0.004 | [7] -0.032 | [8] 0.016 | [9] 0.005 | [10] 0.002 | [11] -0.128 | [12] -0.024 | [13] 0.04 | [14] -0.004 | [15] 0.026 | [16] 0.078 | [17] -0.042 | [18] 0.012 | [19] 0.043 | [20] 0.015

SEPTIN7 (UniProt Q16181)
inactive: [1] 0.028 | [2] 0.007 | [3] 0.052 | [4] -0.135 | [5] -0.01 | [6] -0.099 | [7] -0.033 | [8] 0.034 | [9] -0.026 | [10] 0.128 | [11] 0.028 | [12] -0.014 | [13] -0.008 | [14] -0.01 | [15] -0.05 | [16] -0.016 | [17] 0.076 | [18] -0.035 | [19] -0.063 | [20] 0.041

SHKBP1 (UniProt Q8TBC3)
inactive: [1] 0.014 | [2] -0.019 | [3] -0.024 | [4] -0.019 | [5] 0.051 | [6] -0.059 | [7] 0.005 | [8] -0.133 | [9] 0.019 | [10] -0.055 | [11] -0.031 | [12] -0.089 | [13] 0.037 | [14] 0.059 | [15] 0.039 | [16] -0.09 | [17] 0.01 | [18] -0.077 | [19] 0.005 | [20] 0
